# In the supplement of paper PMC9744312:
# Counter-ions that a name gives are not always drawn. The list shows a part of the results. This is a noisy data set.
# Tested on: Peyronie's disease tunica albuginea primary fibroblasts
# Experiment: inhibition of TGF-beta1-induced alpha-SMA expression (myofibroblast transformation), relative to TGF-beta1-only and untreated controls; higher = stronger inhibition of myofibroblast transformation
# Conditions: 10 µM; TGF-beta1 10 ng/mL; 72 h
row,Compound,inhibition of TGF-beta1-induced alpha-SMA expression [%]
1,COC(=O)c1ccccc1O [Methyl salicylate],-17.8
2,CC(C)(Sc1cc(C(C)(C)C)c(O)c(C(C)(C)C)c1)Sc1cc(C(C)(C)C)c(O)c(C(C)(C)C)c1 [Probucol],23.1
3,"C=CC(=O)Nc1cccc(Nc2nc(Nc3ccc(N4CCN(C(C)=O)CC4)cc3OC)ncc2C(F)(F)F)c1 [Rociletinib (CO-1686, AVL-301)]",40.2
4,CS(=O)(=O)CCNCc1ccc(-c2ccc3ncnc(Nc4ccc(OCc5cccc(F)c5)c(Cl)c4)c3c2)o1,19.5
5,CS(=O)(=O)CCNCc1ccc(-c2ccc3ncnc(Nc4ccc(OCc5cccc(F)c5)c(Cl)c4)c3c2)o1 [Lapatinib],> 100
6,CS(=O)(=O)CCNCc1ccc(-c2ccc3ncnc(Nc4ccc(OCc5cccc(F)c5)c(Cl)c4)c3c2)o1 [Lapatinib ditosylate monohydrate],25.2
7,Nc1c(Br)cc(Br)cc1CN[C@H]1CC[C@H](O)CC1 [Ambroxol HCl],26.6
8,Nc1c(Br)cc(Br)cc1CN[C@H]1CC[C@H](O)CC1 [Ambroxol],31.1
9,Oc1ccc(Cl)c2cccnc12 [Cloxiquine],> 100
10,Cn1ccnc1S [Methimazole],9.67
11,Nc1ncn([C@H]2C[C@H](O)[C@@H](CO)O2)c(=O)n1 [Decitabine],64.8
12,CC(C)(C(=O)c1cccnc1)c1cccnc1 [Metyrapone],45.9
13,CC(C)/N=c1\cc2n(-c3ccc(Cl)cc3)c3ccccc3nc-2cc1Nc1ccc(Cl)cc1 [Clofazimine],26.1
14,O=C1Cc2cc(CCN3CCN(c4nsc5ccccc45)CC3)c(Cl)cc2N1 [Ziprasidone HCl],63.3
15,CCN[C@H]1C[C@H](C)S(=O)(=O)c2sc(S(N)(=O)=O)cc21 [Dorzolamide HCl],11.2
16,CO[C@@]1(NC(=O)CSCC#N)C(=O)N2C(C(=O)O)=C(CSc3nnnn3C)CS[C@@H]21 [Cefmetazole sodium],-0.373
17,C[C@@H]1[C@H](O)[C@@H](C)/C=C/C=C/C=C/C=C/C=C/C=C/C=C/[C@H](O[C@@H]2O[C@H](C)[C@@H](O)[C@H](N)[C@@H]2O)C[C@@H]2O[C@](O)(C[C@@H](O)C[C@@H](O)[C@H](O)CC[C@@H](O)C[C@@H](O)CC(=O)O[C@H]1C)C[C@H](O)[C@H]2C(=O)O [Amphotericin B],5.78
18,CN1C2=CC(=O)/C(=N\NC(N)=O)C=C2CC1S(=O)(=O)O (centres undefined) [Carbazochrome sodium sulfonate (AC-17)],19.7
19,CCC(Cc1c(I)cc(I)c(N)c1I)C(=O)O (centres undefined) [Iopanoic acid],-2.65

# Not a retest: an excerpt of the list.
row,Compound,inhibition of TGF-beta1-induced alpha-SMA expression [%]
7,Nc1c(Br)cc(Br)cc1CN[C@H]1CC[C@H](O)CC1 [Ambroxol HCl],26.6
8,Nc1c(Br)cc(Br)cc1CN[C@H]1CC[C@H](O)CC1 [Ambroxol],31.1
